These results are taken from PubChem BioAssay AID1159583 (ICCB-Longwood Screening Facility, Harvard Medical School, 2016).

Molecules are shown by their SMILES. The list shows a part of the results.

The test is described as follows: hypoxia reporter signal reduction in M. tuberculosis – fluorescence, absorbance growth readout, primary screen (AID 1159583). As to conditions: M. tuberculosis hypoxia-regulated fluorescent reporter, measured here: M. tuberculosis growth (absorbance), stronger effect = higher value, concentration not given here.
Consider `O=C(NCC1(N2CCCCC2)CCCCC1)c1ccc(=O)[nH]c1`, for which the growth inhibition is -3.39%.

Turning to `COc1ccc(Cl)cc1C(=O)NCC1(N2CCOCC2)CCCCC1`, the growth inhibition was 2.83%. For the compound `O=C(NCC1(N2CCCCC2)CCCCC1)c1ccc(Cl)s1`, the growth inhibition worked out at 1.07%. For the compound `N#CC1(Nc2ccccc2)CCN(Cc2ccccc2)CC1`, the growth inhibition was -4.54%. `O=C(OC1CN2CCC1CC2)C1c2ccccc2Oc2ccccc21` (stereo not drawn): the growth inhibition worked out at 25.6%. `CCOC(=O)N1CCC(Nc2ccc(OC)cc2)CC1`: the growth inhibition turned out to be 1.32%. As for `Cc1cc(C)cc(N(C(=O)c2ccccc2)C2CCN(C(=O)OC(C)(C)C)CC2)c1`, the growth inhibition was -9.67%. `O=C(NCC1(N2CCCCC2)CCCCC1)c1ccc(Cl)nc1`: the growth inhibition was found to be 3.92%. In the case of `CCOC(=O)N1CCC(Nc2ccc(F)cc2)CC1` it was 5.98%; in that of `COc1ccc(NC2CCN(CCc3ccccc3)CC2)c(OC)c1`, -8.72%; in that of `CCCCOc1ccc(C(=O)NCC2(N3CCOCC3)CCCCC2)cc1`, 12.3%. Consider `O=P1(N(CCCl)CCCl)SCCCS1`, for which the growth inhibition came to 7.97%. The value for `O=C(NCC1(N2CCCCC2)CCCCC1)c1ccc(F)cc1` was -1.84%; that for `CCOc1ccc(C)cc1CN(CCCl)CCCl` was -5.02%; that for `CCOC(=O)N1CCC(Nc2cccc(C)c2)CC1` was 6.97%.

Turning to `COc1cc(C(=O)NCC2(N(C)C)CCCCC2)ccc1OC(F)F`, the growth inhibition was found to be 2.75%. In the case of `N#CC1(Nc2ccccc2)CCN(CCc2ccccc2)CC1`, the growth inhibition is 7.16%.

Turning to `CCN1CCC(Nc2ccc(Cl)cc2)CC1`, the growth inhibition came out at 2%. Consider `O=C(NCC1(N2CCCCC2)CCCCC1)c1cccc([N+](=O)[O-])c1`, for which the growth inhibition is 7.38%. For the compound `CSc1ccc(C(=O)NCC2(N3CCOCC3)CCCCC2)cc1`, the growth inhibition is -4.92%. For `O=C(NCC1(N2CCCCC2)CCCCC1)c1ccc(OC(F)F)cc1`, the growth inhibition turned out to be 1.97%. `COc1cc(C(=O)NCC2(N3CCCCC3)CCCCC2)ccc1OC(F)F`: the growth inhibition came out at 6.64%.

As for `COc1ccc(NC2CCN(C(=O)OC(C)(C)C)CC2)cc1`, the growth inhibition was 11.6%. The value for `CC(C)c1ccc(C(=O)NCC2(N3CCOCC3)CCCCC2)cc1` was 1.9%; that for `CN1CCN(CCOC(=O)C(O)(c2ccccc2)c2ccccc2)CC1` was 0.803%. `O=C(NCC1(N2CCCCC2)CCCCC1)c1cccc(C(F)(F)F)c1`: the growth inhibition is 3.64%. In the case of `O=C(NCC1(N2CCOCC2)CCCCC1)c1cc(F)c(F)cc1Cl` it was 3.42%. Take `COc1cc(OC)c(C(=O)NCC2(N(C)C)CCCCC2)cc1OC`: the growth inhibition was -5.37%. In the case of `CC(C)c1ccc(NC2CCN(C(=O)OC(C)(C)C)CC2)cc1` it was 12.5%; in that of `CN(C)c1cccc(C(=O)NCC2(N3CCCCC3)CCCCC2)c1`, 5.24%; in that of `COc1ccc(CN(CCCl)CCCl)cc1Cl`, 9.49%. `CCCOc1ccc(C(=O)NCC2(N(C)C)CCCCC2)cc1OC`: the growth inhibition was -0.117%. As for `O=C(NCC1(N2CCCCC2)CCCCC1)c1cncc(Br)c1`, the growth inhibition was 0.654%.
